{"source": "the supplement of paper PMC8728848", "assay_in_all_cases": "glycan array binding signal (z-score within array); higher = stronger binding", "conditions_in_all_cases": "glycan notation: IUPAC condensed, linker removed", "key": {"[1]": {"molecular_target": "Neu5Ac(a2-6)Gal(b1-4)GlcNAc(b1-2)Man(a1-3)[Neu5Ac(a2-3)Gal(b1-4)GlcNAc(b1-2)Man(a1-6)]Man(b1-4)GlcNAc(b1-4)GlcNAc", "in_short": "(§1)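 Arrays were curated from the Consortium for Functional Glycomics database, 3228 in total, and kept only where the protein sequence was available. Binding is expressed as a within-array Z-score. This score was averaged across arrays of the same protein sequence at different concentrations or buffers and across linkers, and negative values can be read as non-binding.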"}, "[2]": {"molecular_target": "Neu5Ac(a2-6)Gal(b1-4)GlcNAc(b1-2)Man(a1-3)[Neu5Ac(a2-6)Gal(b1-4)GlcNAc(b1-2)Man(a1-6)]Man(b1-4)GlcNAc(b1-4)GlcNAc", "in_short": "as §1"}, "[3]": {"molecular_target": "Neu5Ac(a2-6)Gal(b1-4)GlcNAc(b1-2)Man(a1-3)[Neu5Ac(a2-6)Gal(b1-4)GlcNAc(b1-2)Man(a1-6)]Man(b1-4)GlcNAc(b1-4)[Fuc(a1-6)]GlcNAc", "in_short": "as §1"}, "[4]": {"molecular_target": "Neu5Ac(a2-6)Gal(b1-4)GlcNAc(b1-2)Man(a1-6)Man(b1-4)GlcNAc(b1-4)GlcNAc", "in_short": "as §1"}, "[5]": {"molecular_target": "Neu5Ac(a2-6)Gal(b1-4)GlcNAc(b1-2)Man(a1-6)[Gal(b1-4)GlcNAc(b1-2)Man(a1-3)]Man(b1-4)GlcNAc(b1-4)GlcNAc", "in_short": "as §1"}, "[6]": {"molecular_target": "Neu5Ac(a2-6)Gal(b1-4)GlcNAc(b1-2)Man(a1-6)[GlcNAc(b1-2)Man(a1-3)]Man(b1-4)GlcNAc(b1-4)GlcNAc", "in_short": "as §1"}, "[7]": {"molecular_target": "Neu5Ac(a2-6)Gal(b1-4)GlcNAc(b1-2)Man(a1-6)[Man(a1-3)]Man(b1-4)GlcNAc(b1-4)GlcNAc", "in_short": "as §1"}, "[8]": {"molecular_target": "Neu5Ac(a2-6)Gal(b1-4)GlcNAc(b1-2)[Neu5Ac(a2-6)Gal(b1-4)GlcNAc(b1-4)]Man(a1-3)[GlcNAc(b1-4)][Neu5Ac(a2-6)Gal(b1-4)GlcNAc(b1-2)[Neu5Ac(a2-6)Gal(b1-4)GlcNAc(b1-6)]Man(a1-6)]Man(b1-4)GlcNAc(b1-4)GlcNAc", "in_short": "as §1"}, "[9]": {"molecular_target": "Neu5Ac(a2-6)Gal(b1-4)GlcNAc(b1-2)[Neu5Ac(a2-6)Gal(b1-4)GlcNAc(b1-4)]Man(a1-3)[GlcNAc(b1-4)][Neu5Ac(a2-6)Gal(b1-4)GlcNAc(b1-4)Man(a1-6)]Man(b1-4)GlcNAc(b1-4)GlcNAc", "in_short": "as §1"}, "[10]": {"molecular_target": "Neu5Ac(a2-6)Gal(b1-4)GlcNAc(b1-2)[Neu5Ac(a2-6)Gal(b1-4)GlcNAc(b1-6)]Man(a1-6)[Neu5Ac(a2-6)Gal(b1-4)GlcNAc(b1-2)Man(a1-3)][GlcNAc(b1-4)]Man(b1-4)GlcNAc(b1-4)GlcNAc", "in_short": "as §1"}, "[11]": {"molecular_target": "Neu5Ac(a2-6)Gal(b1-4)GlcNAc(b1-3)Gal(b1-3)GlcNAc", "in_short": "as §1"}, "[12]": {"molecular_target": "Neu5Ac(a2-6)Gal(b1-4)GlcNAc(b1-3)Gal(b1-4)GlcNAc", "in_short": "as §1"}, "[13]": {"molecular_target": "Neu5Ac(a2-6)Gal(b1-4)GlcNAc(b1-3)Gal(b1-4)GlcNAc(b1-2)Man(a1-3)[Neu5Ac(a2-6)Gal(b1-4)GlcNAc(b1-3)Gal(b1-4)GlcNAc(b1-2)Man(a1-6)]GalNAc", "in_short": "as §1"}, "[14]": {"molecular_target": "Neu5Ac(a2-6)Gal(b1-4)GlcNAc(b1-3)Gal(b1-4)GlcNAc(b1-3)Gal(b1-4)GlcNAc", "in_short": "as §1"}, "[15]": {"molecular_target": "Neu5Ac(a2-6)Gal(b1-4)GlcNAc(b1-3)Gal(b1-4)GlcNAc(b1-3)Gal(b1-4)GlcNAc(b1-2)Man(a1-3)[Neu5Ac(a2-6)Gal(b1-4)GlcNAc(b1-3)Gal(b1-4)GlcNAc(b1-3)Gal(b1-4)GlcNAc(b1-2)Man(a1-6)]GalNAc", "in_short": "as §1"}, "[16]": {"molecular_target": "Neu5Ac(a2-6)Gal(b1-4)GlcNAc(b1-3)Gal(b1-4)GlcNAc(b1-3)GalNAc", "in_short": "as §1"}, "[17]": {"molecular_target": "Neu5Ac(a2-6)Gal(b1-4)GlcNAc(b1-3)Gal(b1-4)GlcNAc(b1-3)[Neu5Ac(a2-6)Gal(b1-4)GlcNAc(b1-3)Gal(b1-4)GlcNAc(b1-6)]GalNAc", "in_short": "as §1"}, "[18]": {"molecular_target": "Neu5Ac(a2-6)Gal(b1-4)GlcNAc(b1-3)Gal(b1-4)GlcNAc(b1-6)[Gal(b1-3)]GalNAc", "in_short": "as §1"}, "[19]": {"molecular_target": "Neu5Ac(a2-6)Gal(b1-4)GlcNAc(b1-3)Gal(b1-4)[Fuc(a1-3)]GlcNAc(b1-3)Gal(b1-4)[Fuc(a1-3)]GlcNAc", "in_short": "as §1"}, "[20]": {"molecular_target": "Neu5Ac(a2-6)Gal(b1-4)GlcNAc(b1-3)GalNAc", "in_short": "as §1"}, "[21]": {"molecular_target": "Neu5Ac(a2-6)Gal(b1-4)GlcNAc(b1-3)[Neu5Ac(a2-6)Gal(b1-4)GlcNAc(b1-6)]GalNAc", "in_short": "as §1"}, "[22]": {"molecular_target": "Neu5Ac(a2-6)Gal(b1-4)GlcNAc(b1-6)GalNAc", "in_short": "as §1"}, "[23]": {"molecular_target": "Neu5Ac(a2-6)Gal(b1-4)GlcNAc(b1-6)[Gal(b1-3)GlcNAc(b1-3)]Gal(b1-4)Glc", "in_short": "as §1"}, "[24]": {"molecular_target": "Neu5Ac(a2-6)Gal(b1-4)GlcNAc(b1-6)[Gal(b1-3)]GalNAc", "in_short": "as §1"}, "[25]": {"molecular_target": "Neu5Ac(a2-6)Gal(b1-4)GlcNAc6S", "in_short": "as §1"}, "Neu5Ac(a2-6)GalNAc": {"molecular_target": "Neu5Ac(a2-6)GalNAc", "in_short": "as §1"}, "[26]": {"molecular_target": "Neu5Ac(a2-6)GalNAc(b1-4)GlcNAc", "in_short": "as §1"}, "[27]": {"molecular_target": "Neu5Ac(a2-6)GalNAc(b1-4)GlcNAc6S", "in_short": "as §1"}, "[28]": {"molecular_target": "Neu5Ac(a2-6)GlcNAc(b1-4)GlcNAc", "in_short": "as §1"}, "[29]": {"molecular_target": "Neu5Ac(a2-6)GlcNAc(b1-4)GlcNAc(b1-4)GlcNAc", "in_short": "as §1"}}, "note": "The other results are listed elsewhere or left out."}
{"binder": "PX14375D-bvu-513-34-513 (Bacteroides vulgatus) (protein) TEDTFWKDETDFNLALTSCYTPLKNALNGGYYGTRGVMLRIARADEVDFRNDISDVYTVNRFTNSNTNSLTQGMFYQFYNALYRTNSIMQKLEEKKEQFSTDFQNSVKGECLFIRGFYLFQLAKEFKDAPLRLTASQSPSTFPLAKSSQADIWAQAKEDLKTAASLLPITNKIGKPTQGAAYAALGKIYVYEENWQEAINVLEPLTQNPYTYKLVEDFNWNFDDTHENNAESIFELLIEDVGGTDLWGDGENINSTQSNTRPKEYAAAEVGGWYEANPTQQIMDIFWKEKDKDGNFDYRARCSVAWDYEGCTYYQRPFREVFAQDKWKTYWILKYQNWKTQKDEPAPPKSFINERAIRYADVLLMLAEAYMNKGALDTSIGYINQIRRRANLNDYSGPITKEGVFEDLVHQRAIEFFVEGERFYDLRRWGLLEQTLKTCDDTRYKNYQTGKSDNINKFNYFPIPAKELDTNPLCTPSEGW", "values": [{"measurement": "glycan array binding signal (z-score)", "setting": "[1]", "result": -0.464}, {"measurement": "glycan array binding signal (z-score)", "setting": "[2]", "result": -0.145}, {"measurement": "glycan array binding signal (z-score)", "setting": "[3]", "result": -0.487}, {"measurement": "glycan array binding signal (z-score)", "setting": "[4]", "result": 0.342}, {"measurement": "glycan array binding signal (z-score)", "setting": "[5]", "result": -0.619}, {"measurement": "glycan array binding signal (z-score)", "setting": "[6]", "result": -0.574}, {"measurement": "glycan array binding signal (z-score)", "setting": "[7]", "result": 0.663}, {"measurement": "glycan array binding signal (z-score)", "setting": "[8]", "result": 0.509}, {"measurement": "glycan array binding signal (z-score)", "setting": "[9]", "result": -0.296}, {"measurement": "glycan array binding signal (z-score)", "setting": "[10]", "result": 0.09}, {"measurement": "glycan array binding signal (z-score)", "setting": "[11]", "result": -0.298}, {"measurement": "glycan array binding signal (z-score)", "setting": "[12]", "result": -0.469}, {"measurement": "glycan array binding signal (z-score)", "setting": "[13]", "result": 0.246}, {"measurement": "glycan array binding signal (z-score)", "setting": "[14]", "result": -0.146}, {"measurement": "glycan array binding signal (z-score)", "setting": "[15]", "result": 0.396}, {"measurement": "glycan array binding signal (z-score)", "setting": "[16]", "result": -0.231}, {"measurement": "glycan array binding signal (z-score)", "setting": "[17]", "result": 0.047}, {"measurement": "glycan array binding signal (z-score)", "setting": "[18]", "result": -0.013}, {"measurement": "glycan array binding signal (z-score)", "setting": "[19]", "result": 0.509}, {"measurement": "glycan array binding signal (z-score)", "setting": "[20]", "result": -0.41}, {"measurement": "glycan array binding signal (z-score)", "setting": "[21]", "result": -0.462}, {"measurement": "glycan array binding signal (z-score)", "setting": "[22]", "result": 0.217}, {"measurement": "glycan array binding signal (z-score)", "setting": "[23]", "result": 0.707}, {"measurement": "glycan array binding signal (z-score)", "setting": "[24]", "result": -0.381}, {"measurement": "glycan array binding signal (z-score)", "setting": "[25]", "result": -0.301}, {"measurement": "glycan array binding signal (z-score)", "setting": "Neu5Ac(a2-6)GalNAc", "result": -0.711}, {"measurement": "glycan array binding signal (z-score)", "setting": "[26]", "result": 0.371}, {"measurement": "glycan array binding signal (z-score)", "setting": "[27]", "result": 0.836}, {"measurement": "glycan array binding signal (z-score)", "setting": "[28]", "result": -0.189}, {"measurement": "glycan array binding signal (z-score)", "setting": "[29]", "result": 0.337}]}
